Reference: PubChem BioAssay AID330 (DTP/NCI, 2004)
The list does not hold the whole screen: it gathers tests that were run many times, whatever their T/C, doses with no T/C, and many T/C values between a quarter and a half above the control. Other doses and runs of a compound stand elsewhere. T/C gives the treated animals as a percentage of the vehicle group. Some entries give survivors of the animals treated and no T/C: the source files T/C as zero there, which appears to mark a toxic dose or a test without result, not a measured value. Some doses without a T/C left all or most animals alive at the check, yet need not have been tolerated: survival well below the control is almost never listed, so the zero probably covers shortened survival too. Counts of survivors are from the toxicity check (mostly the fifth day) where no day follows; animals may have died later. Schedule codes are those of the source, read here as Q, the interval in days (D) or hours (H), X, the number of doses. Some molecules as drawn cover several salts, stereoisomers or complexes of the source; a dose is that of the sample tested. Some doses were run more than once; the results are listed from low to high. Where survival is the endpoint, this PubChem deposit counts one and a half times the control or more as active, and values a quarter to a half above the control carry no call in these data; other NCI protocols may use other cut-offs. Some T/C values carry the count of animals alive at the toxicity check (mostly the fifth day); without a count, all were alive then. Counts like (3×) say how often a value occurs here.

System: P388 leukemia ip, CD2F1 mice, survival T/C
Assay: NCI In Vivo Anticancer Drug Screen. Data for tumor model P388 Leukemia (intraperitoneal) in CD2F1 (CDF1) mice
Details: T/C endpoint: median survival time, higher T/C = longer survival
[1] = dose: 32.0 mg/kg/injection, schedule: Q01DX009 (ip), vehicle: distilled water + Tween-80
[2] = dose: 50.0 mg/kg/injection, schedule: Q01DX001 (ip), vehicle: Klucel (hydroxypropylcellulose) (HPC)
[3] = dose: 60.0 mg/kg/injection, schedule: Q04DX003 (ip), vehicle: Klucel (hydroxypropylcellulose) (HPC)

With COc1cc2c[n+](C)c3c4cc5c(cc4ccc3c2cc1OC)OCO5 the survivor count (dose: 20.0 mg/kg/injection, schedule: Q01DX009 (ip), vehicle: water) was 5 of 6 and 6 of 6, the T/C (dose: 25.92 mg/kg/injection, schedule: Q04DX003 (ip), vehicle: distilled water + Tween-80) was 130 % of control and the T/C (dose: 30.0 mg/kg/injection, schedule: Q04DX002 (ip), vehicle: Klucel (hydroxypropylcellulose) (HPC), evaluated on day 30) was 100, 117, 126 [5 of 6 alive], 128, 132, 133, 135, 137, 138, 139, 140, 141, 142, 147 (2×), 149, 151, 153, 154, 158, 159 (3×), 160 (3×), 164, 165, 169, 173, 174 % of control. The T/C (dose: 30.0 mg/kg/injection, schedule: Q04DX002 (ip), vehicle: Klucel (hydroxypropylcellulose) (HPC), evaluated on day 35) was 128, 136, 149 % of control, the survivor count (dose: 30.0 mg/kg/injection, schedule: Q04DX002 (ip), vehicle: Klucel (hydroxypropylcellulose) (HPC)) was 3 of 3 and 6 of 6 and the T/C (dose: 30.0 mg/kg/injection, schedule: Q04DX003 (ip), vehicle: Klucel (hydroxypropylcellulose) (HPC)) was 129, 135, 138, 141 (2×), 143 (2×), 144, 146 (2×), 147, 148 (2×), 151 (2×), 152 (2×), 153 (2×), 154, 155 (2×), 156, 158, 159, 160, 161, 165, 168, 171, 175, 176, 182, 186 % of control. For the same molecule, the T/C (dose: 32.0 mg/kg/injection, schedule: Q01DX001 (ip), vehicle: saline with Tween-80) was 138 % of control, the T/C (dose: 32.0 mg/kg/injection, schedule: Q01DX005 (ip), vehicle: distilled water + Tween-80) was 139 % of control and the T/C [1] was 119, 136, 172 % of control [4 of 6 alive]. The survivor count [1] was 4 of 6 and 5 of 6, the survivor count (dose: 32.0 mg/kg/injection, schedule: Q01DX009 (ip), vehicle: water) was 7 of 10 and the survivor count (dose: 32.0 mg/kg/injection, schedule: Q01DX009 (sc), vehicle: water) was 10 of 10. The survivor count (dose: 32.0 mg/kg/injection, schedule: Q03HX008 (ip), vehicle: water) was 0 of 10, the T/C (dose: 32.0 mg/kg/injection, schedule: Q04DX003 (ip), vehicle: other) was 149 % of control and the T/C (dose: 32.0 mg/kg/injection, schedule: Q04DX003 (ip), vehicle: saline with Tween-80) was 138 % of control. For the same molecule, the T/C (dose: 32.0 mg/kg/injection, schedule: Q08DX002 (ip), vehicle: saline with Tween-80) was 144 % of control, the T/C (dose: 40.0 mg/kg/injection, schedule: Q01DX005 (ip), vehicle: Klucel (hydroxypropylcellulose) (HPC), evaluated on day 30) was 89, 101, 102, 103 (2×), 108, 109, 114, 122, 123, 127, 132, 134, 135, 139, 141, 145, 146, 153, 155, 157, 162, 168 [4 of 6 alive], 169, 173, 176, 179 [5 of 6 alive], 189, 209 % of control and the T/C (dose: 40.0 mg/kg/injection, schedule: Q01DX005 (ip), vehicle: Klucel (hydroxypropylcellulose) (HPC), evaluated on day 35) was 187 % of control. The survivor count (dose: 40.0 mg/kg/injection, schedule: Q01DX005 (ip), vehicle: Klucel (hydroxypropylcellulose) (HPC)) was 3 of 3 and 6 of 6, the T/C (dose: 40.0 mg/kg/injection, schedule: Q01DX009 (ip), vehicle: Klucel (hydroxypropylcellulose) (HPC), evaluated on day 30) was 87, 88, 90 (2×), 91, 94, 96 (2×), 97 (2×), 102 (2×), 103, 106 (2×), 107 (2×), 108 (2×), 111 (2×), 116, 121, 127, 135, 141, 149, 151, 156, 171, 172 % of control and the T/C (dose: 40.0 mg/kg/injection, schedule: Q01DX009 (ip), vehicle: Klucel (hydroxypropylcellulose) (HPC), evaluated on day 35) was 110 and 126 % of control. For the same molecule, the survivor count (dose: 40.0 mg/kg/injection, schedule: Q01DX009 (ip), vehicle: Klucel (hydroxypropylcellulose) (HPC)) was 4 of 6 and 3 of 3, the survivor count (dose: 40.0 mg/kg/injection, schedule: Q01DX009 (ip), vehicle: water) was 3 of 6, 5 of 8, 4 of 6, 5 of 6, 7 of 8, 6 of 6 and the T/C (dose: 43.2 mg/kg/injection, schedule: Q04DX003 (ip), vehicle: distilled water + Tween-80) was 130 % of control. For the same molecule, the T/C [2] was 108, 110, 117, 130, 133, 136, 138 (2×), 138 [5 of 6 alive], 139 (2×), 140, 142, 145, 147, 150 (3×), 151 (2×), 152, 153 (3×), 158, 160, 162, 166, 167, 168, 172 % of control, the survivor count [2] was 6 of 6 and the survivor count (dose: 50.0 mg/kg/injection, schedule: Q01DX009 (ip), vehicle: saline with Tween-80) was 6 of 6. For the same molecule, the survivor count (dose: 50.0 mg/kg/injection, schedule: Q01DX009 (ip), vehicle: water) was 2 of 10 and 3 of 10, the T/C (dose: 50.0 mg/kg/injection, schedule: Q04DX002 (ip), vehicle: Klucel (hydroxypropylcellulose) (HPC)) was 144 and 149 % of control and the T/C (dose: 60.0 mg/kg/injection, schedule: Q04DX002 (ip), vehicle: Klucel (hydroxypropylcellulose) (HPC), evaluated on day 30) was 103, 108, 130, 137, 142, 145, 146, 148, 149, 150, 151, 155 (3×), 157, 157 [2 of 3 alive], 159, 161, 163, 165 (2×), 169 (2×), 174, 176, 178, 179, 195, 200, 221 % of control. For the same molecule, the T/C (dose: 60.0 mg/kg/injection, schedule: Q04DX002 (ip), vehicle: Klucel (hydroxypropylcellulose) (HPC), evaluated on day 35) was 157, 166, 186 % of control, the survivor count (dose: 60.0 mg/kg/injection, schedule: Q04DX002 (ip), vehicle: Klucel (hydroxypropylcellulose) (HPC)) was 3 of 6, 3 of 3, 6 of 6 and the T/C [3] was 122 [2 of 3 alive], 128, 131, 141, 142 (2×), 143, 145, 146, 147, 148, 152, 154 (3×), 158, 160, 161, 162 (2×), 163, 172, 174, 175, 176, 179, 182, 185, 187 (2×), 189, 195, 199 % of control. The survivor count [3] was 3 of 3, the T/C (dose: 64.0 mg/kg/injection, schedule: Q01DX001 (ip), vehicle: saline with Tween-80) was 138 % of control and the survivor count (dose: 64.0 mg/kg/injection, schedule: Q01DX005 (ip), vehicle: distilled water + Tween-80) was 0 of 5. The survivor count (dose: 64.0 mg/kg/injection, schedule: Q01DX009 (ip), vehicle: saline with Tween-80) was 10 of 10.
